This experiment relates to P388 leukemia ip, CD2F1 mice, survival T/C. Description: NCI In Vivo Anticancer Drug Screen. Data for tumor model P388 Leukemia (intraperitoneal) in CD2F1 (CDF1) mice. The note with it: T/C endpoint: median survival time, higher T/C = longer survival.
Setting [1] is: dose: 120.0 mg/kg/injection, schedule: Q01DX005 (ip), vehicle: Klucel (hydroxypropylcellulose) (HPC).
Setting [2] is: dose: 100.0 mg/kg/injection, schedule: Q01DX005 (ip), vehicle: saline with Tween-80.
[3] abbreviates: dose: 200.0 mg/kg/injection, schedule: Q01DX005 (ip), vehicle: saline with Tween-80.
The mark [4] stands for this setting: dose: 50.0 mg/kg/injection, schedule: Q01DX009 (ip), vehicle: other.
The mark [5] stands for this setting: dose: 100.0 mg/kg/injection, schedule: Q01DX009 (ip), vehicle: saline with Tween-80.
Setting [6] is: dose: 200.0 mg/kg/injection, schedule: Q01DX009 (ip), vehicle: other.
Setting [7] is: dose: 50.0 mg/kg/injection, schedule: Q01DX009 (ip), vehicle: saline.
The mark [8] stands for this setting: dose: 100.0 mg/kg/injection, schedule: Q01DX009 (ip), vehicle: saline.
Where [9] appears, read: dose: 200.0 mg/kg/injection, schedule: Q01DX009 (ip), vehicle: saline.

The list does not hold the whole screen: it gathers tests that were run many times, whatever their T/C, doses with no T/C, and many T/C values between a quarter and a half above the control. Further doses and runs are listed elsewhere. T/C is the treated group as % of the vehicle group. Some doses have a count of surviving animals in place of a T/C: the source files T/C as zero there, which appears to mark a toxic dose or a test without result, not a measured value. Some doses without a T/C left all or most animals alive at the check, yet need not have been tolerated: survival well below the control is almost never listed, so the zero probably covers shortened survival too. Counts of survivors are from the toxicity check (mostly the fifth day) where no day follows; animals may have died later. Schedule codes are those of the source, taken here to give the interval after Q, in days (D) or hours (H), and the number of doses after X. Some entries were tested several times; the results are listed from low to high. Where survival is the endpoint, this PubChem deposit counts one and a half times the control or more as active, and values a quarter to a half above the control carry no call in these data; other NCI protocols may use other cut-offs. Some T/C values are followed by the survivors on the day toxicity was checked, most often the fifth; without a count, all were alive then.

For `CC(=O)NC(CCl)(OC(C)=O)C(=O)OCc1ccc([N+](=O)[O-])cc1` (configuration not stated), the survivor count (dose: 100.0 mg/kg/injection, schedule: Q01DX001 (ip), vehicle: Klucel (hydroxypropylcellulose) (HPC)) was 6 of 6; the survivor count (dose: 200.0 mg/kg/injection, schedule: Q01DX001 (ip), vehicle: Klucel (hydroxypropylcellulose) (HPC)) was 6 of 6; the survivor count (dose: 400.0 mg/kg/injection, schedule: Q01DX001 (ip), vehicle: Klucel (hydroxypropylcellulose) (HPC)) is reported as 6 of 6.
`Cc1c(C)c(C)c(C(=O)c2ccccc2C(=O)NCCSC(C)(C)C)c(C)c1C`: the survivor count under setting [1] is 6 of 6.
As for `COc1ccc2c(c1OC)C[N+]1(C)CCc3cc4c(cc3C1=C2)OCO4` (configuration not stated), the survivor count (dose: 20.0 mg/kg/injection, schedule: Q01DX009 (ip), vehicle: water) was 3 of 6.
On to `CCC(=O)/C=C/c1ccc(N(C)C)cc1`, for which, for the setting “dose: 400.0 mg/kg/injection, schedule: Q04DX003 (ip), vehicle: Klucel (hydroxypropylcellulose) (HPC)”, the survivor count is 5 of 6.
For `COc1cc(O)c2c(c1)C(O)C(O)CC1OC1C(=O)/C=C/CC(C)OC2=O` (configuration not stated), the survivor count is, setting by setting: (dose: 25.0 mg/kg/injection, schedule: Q01DX005 (ip), vehicle: saline with Tween-80) 4 of 6; (dose: 50.0 mg/kg/injection, schedule: Q01DX005 (ip), vehicle: saline with Tween-80) 0 of 6; under setting [2], 0 of 6; under setting [3], 0 of 6.
As for `C[C@]12CCC(=O)C[C@@H]1CC[C@@H]1[C@@H]2CC[C@]2(C)[C@@H](OC(=O)N(CCCl)N=O)CC[C@@H]12`, the survivor count runs as follows: (dose: 6.25 mg/kg/injection, schedule: Q01DX009 (ip), vehicle: saline) 6 of 6; (dose: 12.5 mg/kg/injection, schedule: Q01DX009 (ip), vehicle: saline) 5 of 6. Further, the T/C (dose: 15.6 mg/kg/injection, schedule: Q04DX003 (ip), vehicle: saline) was 136 % of control; the T/C (dose: 31.2 mg/kg/injection, schedule: Q04DX003 (ip), vehicle: saline) was 145 % of control; the T/C under setting [4] is 130 % of control; the T/C (dose: 62.5 mg/kg/injection, schedule: Q04DX003 (ip), vehicle: saline) is 146 % of control [5 of 6 alive]; the T/C (dose: 125.0 mg/kg/injection, schedule: Q04DX003 (ip), vehicle: saline) was 135 and 145 % of control.
With `O=C(NC1CCCCC1)OCc1c(COC(=O)NC2CCCCC2)c(-c2ccc(Cl)c(Cl)c2)n2c1CCC2`, the T/C was 142 % of control (dose: 25.0 mg/kg/injection, schedule: Q01DX009 (ip), vehicle: Klucel (hydroxypropylcellulose) (HPC)); 141 % of control (dose: 25.0 mg/kg/injection, schedule: Q01DX009 (ip), vehicle: saline with Tween-80); 175, 187, 193, 212 % of control under setting [5]. Further, where the note is “dose: 400.0 mg/kg/injection, schedule: Q01DX009 (ip), vehicle: saline with Tween-80”, the survivor count is 6 of 6.
Turning to `O=P(c1ccccc1)(c1ccccc1)c1ccccc1` (tested in a mixture with another compound), the survivor count under setting [4] is 6 of 6; the survivor count (dose: 100.0 mg/kg/injection, schedule: Q01DX009 (ip), vehicle: other) is 6 of 6; the survivor count under setting [6] was 5 of 6; the survivor count (dose: 400.0 mg/kg/injection, schedule: Q01DX009 (ip), vehicle: other) was 3 of 6.
Regarding `CC(C)(c1ccc(OCOC(=O)NN)cc1)c1ccc(OCOC(=O)NN)cc1`, the survivor count (dose: 200.0 mg/kg/injection, schedule: Q01DX009 (ip), vehicle: saline with Tween-80) was 3 of 6.
For `O=C(CNNC(=O)OCc1ccccc1)OCc1ccccc1`, the survivor count under setting [6] was 5 of 6.
`Cc1ccc(NC(=O)N(CCCCl)N=O)cc1`: the survivor count is listed as 6 of 6 under setting [5] and 6 of 6 (dose: 400.0 mg/kg/injection, schedule: Q04DX003 (ip), vehicle: saline with Tween-80).
`COc1cc2c(c(OC)c1OC)-c1ccc(OC)c(=O)cc1[C@@H](N(C)Cc1ccccc1O)CC2`: the T/C was 125 % of control (dose: 5.0 mg/kg/injection, schedule: Q01DX009 (ip), vehicle: Klucel (hydroxypropylcellulose) (HPC)); 139 and 143 % of control (dose: 10.0 mg/kg/injection, schedule: Q01DX009 (ip), vehicle: Klucel (hydroxypropylcellulose) (HPC)). Also, the survivor count (dose: 40.0 mg/kg/injection, schedule: Q01DX009 (ip), vehicle: Klucel (hydroxypropylcellulose) (HPC)) was 5 of 6.
In the case of `C#CC[N+]1(C)CCC=C(C(=O)OC)C1` (configuration not stated), the survivor count runs as follows: under setting [7], 6 of 6; under setting [8], 5 of 6; under setting [9], 0 of 6.
With `CCCCCCCCCCC[N+]1([O-])CCCCCC1`, the survivor count runs as follows: under setting [7], 6 of 6; under setting [8], 0 of 6; under setting [9], 0 of 6.
Take `NS(=O)(=O)c1cc(S(=O)(=O)Cl)ccc1Cl`: the survivor count is reported as 3 of 6 under setting [2] and 0 of 6 under setting [3].
As to `CCC12C=CCN3CC[C@@]4(c5cc([C@@]6(C(=O)OC)C[C@@H]7CN(CCc8c6[nH]c6ccccc86)C[C@](O)(CC)C7)c(OC)cc5N(C)[C@H]4[C@@](O)(C(=O)NCCCCCCCCCCCC(=O)O)[C@@H]1O)C32` (some centres not stated), the survivor count is, setting by setting: (dose: 22.5 mg/kg/injection, schedule: Q01DX001 (ip), vehicle: other) 2 of 6; (dose: 22.5 mg/kg/injection, schedule: Q01DX001 (ip), vehicle: saline) 2 of 6; (dose: 45.0 mg/kg/injection, schedule: Q01DX001 (ip), vehicle: other) 0 of 6; (dose: 45.0 mg/kg/injection, schedule: Q01DX001 (ip), vehicle: saline) 2 of 6; (dose: 90.0 mg/kg/injection, schedule: Q01DX001 (ip), vehicle: other) 0 of 6; (dose: 90.0 mg/kg/injection, schedule: Q01DX001 (ip), vehicle: saline with Tween-80) 2 of 6. Besides, the survivor count (dose: 90.0 mg/kg/injection, schedule: Q01DX001 (ip), vehicle: saline) is given as 0 of 6.
Consider `COc1ccc(C/C=N/O)c(OC)c1`, for which the survivor count reads like this: under setting [4], 5 of 5; under setting [6], 5 of 5.
On to `C=C(Cl)C(=NC(C)(C)C)Nc1cccc(Cl)c1`, for which the survivor count is, setting by setting: (dose: 50.0 mg/kg/injection, schedule: Q01DX005 (ip), vehicle: Klucel (hydroxypropylcellulose) (HPC)) 4 of 5; (dose: 100.0 mg/kg/injection, schedule: Q01DX005 (ip), vehicle: Klucel (hydroxypropylcellulose) (HPC)) 1 of 5; (dose: 200.0 mg/kg/injection, schedule: Q01DX005 (ip), vehicle: Klucel (hydroxypropylcellulose) (HPC)) 1 of 5.
Consider `NC1=NN(O)C2=CC(F)C=CC2=N1` (configuration not stated), for which the T/C (dose: 200.0 mg/kg/injection, schedule: Q01DX009 (ip), vehicle: Klucel (hydroxypropylcellulose) (HPC)) was 127 % of control.
Consider `CN(C)/C=N\c1ncnc2c1c(C#N)cn2C1OC(CO)C(O)C1O` (configuration not stated), for which the T/C is 137 % of control (dose: 30.0 mg/kg/injection, schedule: Q01DX005 (ip), vehicle: Klucel (hydroxypropylcellulose) (HPC), evaluated on day 22) and 130 % of control (dose: 30.0 mg/kg/injection, schedule: Q01DX005 (ip), vehicle: Klucel (hydroxypropylcellulose) (HPC), evaluated on day 30). In addition, the survivor count is 0 of 6 and 5 of 6 (dose: 60.0 mg/kg/injection, schedule: Q01DX005 (ip), vehicle: Klucel (hydroxypropylcellulose) (HPC)); 0 of 6 under setting [1]; 0 of 6 (dose: 240.0 mg/kg/injection, schedule: Q01DX005 (ip), vehicle: Klucel (hydroxypropylcellulose) (HPC)).
Turning to `COc1cc2c[n+](C)c3ccccc3c2cc1OC`, the T/C is, setting by setting: (dose: 25.0 mg/kg/injection, schedule: Q01DX009 (ip), vehicle: water) 125 % of control; (dose: 50.0 mg/kg/injection, schedule: Q01DX009 (ip), vehicle: water) 131 and 135 % of control; (dose: 100.0 mg/kg/injection, schedule: Q01DX009 (ip), vehicle: water) 128 % of control. Under “dose: 200.0 mg/kg/injection, schedule: Q01DX009 (ip), vehicle: water”, the survivor count is 0 of 6 and 1 of 6.

The record behind these values is PubChem BioAssay AID330 (DTP/NCI, 2004).
